US20110207771A1, “N-(L-ALKYL-2-PHENYLETHYL)-CARBOXAMIDE DERIVATIVES AND USE THEREOF AS FUNGICIDES” (SYNGENTA CROP PROTECTION, INC., priority 2006, published 2011)
Some entries share one result that the patent states for a list of compounds.

Key:
Format in all cases: in vivo
Alternaria solani = test: Example B-10: action against Alternaria solani / tomato (early blight on tomatoes); details: 0.02% active ingredient, spray on tomato plants cv. Roter Gnom, inoculated two days after application, assessed after 3 days
Podosphaera leucotricha = test: Example B-1: action against Podosphaera leucotricha / apple (powdery mildew on apple); details: 0.02% active ingredient, spray on apple seedlings cv. McIntosh, inoculated one day after application, assessed after 12 days
Septoria tritici = test: Example B-8: action against Septoria tritici / wheat (Septoria leaf spot on wheat); details: 0.02% active ingredient, spray on wheat plants cv. Riband, inoculated one day after application, assessed 18 days after inoculation
Venturia inaequalis = test: Example B-2: action against Venturia inaequalis / apple (scab on apple); details: 0.02% active ingredient, spray on apple seedlings cv. McIntosh, inoculated one day after application
Botrytis cinerea [1] = test: Example B-4: action against Botrytis cinerea / apple (Botrytis on apple fruits); details: 0.02% active ingredient, 30 μl droplets in holes of apple fruit cv. Golden Delicious, assessed after 7 days
Botrytis cinerea [2] = test: Example B-6: action against Botrytis cinerea / tomato (Botrytis on tomatoes); details: 0.02% active ingredient, spray on tomato plants cv. Roter Gnom, inoculated two days after application, assessed after 4 days
Uncinula necator = test: Example B-9: action against Uncinula necator / grape (powdery mildew on grape); details: 0.02% active ingredient, spray on grape seedlings cv. Gutedel, inoculated one day after application, assessed after 7 days
Pyrenophora teres = test: Example B-7: action against Pyrenophora teres / barley (net blotch on barley); details: 0.02% active ingredient, spray on barley plants cv. Express, inoculated two days after application, assessed 4 days after inoculation
Erysiphe graminis = test: Example B-3: action against Erysiphe graminis / barley (powdery mildew on barley); details: 0.02% active ingredient, spray on barley plants cv. Express, inoculated one day after application, assessed after 6 days
Botrytis cinerea [3] = test: Example B-5: action against Botrytis cinerea / grape (Botrytis on grapes); details: 0.02% active ingredient, spray on grape seedlings cv. Gutedel, inoculated two days after application, assessed after 4 days

Measured: infestation

CCCC(Cc1ccc(Cl)cc1Cl)NC(=O)c1cn(C)cc1C(F)(F)F (racemic) [Compound 5.199]
< 20%: all assays above

CC(Cc1ccc(-c2ccc(Cl)c(Cl)c2)cc1Cl)NC(=O)c1cn(C)nc1C(F)F (racemic) [Compound 1.465]
< 20%: all assays above

CC(Cc1ccc(Cl)cc1)NC(=O)c1cn(C)nc1C(F)F (racemic) [Compound 1.002]
< 20%: all assays above

Cn1cc(C(=O)NCCc2ccc(Cl)cc2Cl)c(C(F)F)n1 [Compound 1.196]
< 20%: all assays above

Cn1cc(C(=O)NC2(Cc3ccc(Cl)cc3Cl)CC2)c(C(F)F)n1 [Compound 1.231, 3-difluoromethyl-1-methyl-1H-pyrazole-4-carboxylic acid [1-(2,4-dichlorobenzyl)-cyclopropyl]-amide]
< 20%: all assays above

Cc1nc(C(F)(F)F)c(C(=O)NC(Cc2ccc(Cl)cc2Cl)C(C)C)s1 (racemic) [Compound 3.200]
< 20%: all assays above

CC(C)C(CNC(=O)c1cn(C)nc1C(F)F)c1ccc(Cl)cc1Cl (racemic) [Compound 1.205]
< 20%: all assays above

CCC(Cc1ccc(Cl)cc1Cl)NC(=O)c1cn(C)cc1C(F)(F)F (racemic) [Compound 5.198]
< 20%: all assays above

CC(Cc1ccc(-c2ccccc2Cl)cc1Cl)NC(=O)c1cn(C)nc1C(F)F (racemic) [Compound 1.461]
< 20%: all assays above

CC(Cc1ccc(Cl)cc1Cl)NC(=O)c1cn(C)nc1C(F)F (centres unmarked) [Compound 1.197, 3-difluoromethyl-1-methyl-1H-pyrazole-4-carboxylic acid [2-(2,4-dichlorophenyl)-1-methyl-ethyl]-amide]
< 20%: all assays above

Cn1cc(C(=O)NCC(C)(F)c2ccc(Cl)cc2Cl)c(C(F)F)n1 (centres unmarked) [Compound 1.221, 3-difluoromethyl-1-methyl-1H-pyrazole-4-carboxylic acid [2-(2,4-dichlorophenyl)-2-fluoro-propyl]-amide]
< 20%: all assays above

CC(Cc1ccc(-c2ccc(Cl)cc2)cc1Cl)NC(=O)c1cn(C)nc1C(F)F (centres unmarked) [Compound 1.462, 3-difluoromethyl-1-methyl-1H-pyrazole-4-carboxylic acid [2-(3,4′-dichlorobiphenyl-4-yl)-1-methyl-ethyl]-amide]
< 20%: all assays above

CCC(Cc1ccc(Cl)cc1Cl)NC(=O)c1cn(C)nc1C(F)F (racemic) [Compound 1.198]
< 20%: all assays above

Cn1cc(C(=O)NCCc2ccc(Cl)cc2)c(C(F)(F)F)n1 [Compound 2.001]
< 20%: all assays above

Cn1cc(C(=O)NCCc2ccc(O)cc2)c(C(F)F)n1 [Compound 1.446]
< 20%: all assays above

CCCC(Cc1ccc(Cl)cc1Cl)NC(=O)c1cn(C)nc1C(F)(F)F (racemic) [Compound 2.199]
< 20%: all assays above

CC(Cc1c(F)cccc1Cl)NC(=O)c1cn(C)nc1C(F)F (racemic) [Compound 1.441]
< 20%: all assays above

Cn1cc(C(=O)NCCc2ccc(Oc3ncc(C(F)(F)F)cc3Cl)cc2)c(C(F)F)n1 [Compound 1.448]
< 20%: all assays above

COc1ccc(-c2ccc(CC(C)NC(=O)c3cn(C)nc3C(F)F)c(Cl)c2)cc1 (racemic) [Compound 1.464]
< 20%: all assays above

Cc1nc(C(F)(F)F)c(C(=O)NC(C)Cc2ccc(Cl)cc2Cl)s1 (racemic) [Compound 3.197]
< 20%: all assays above
